# Results of single-concentration screens

The chains behind the UniProt entries cited, without tags or fusion partners. Residues count along the entry.
UniProt Q4DA54, 1-478: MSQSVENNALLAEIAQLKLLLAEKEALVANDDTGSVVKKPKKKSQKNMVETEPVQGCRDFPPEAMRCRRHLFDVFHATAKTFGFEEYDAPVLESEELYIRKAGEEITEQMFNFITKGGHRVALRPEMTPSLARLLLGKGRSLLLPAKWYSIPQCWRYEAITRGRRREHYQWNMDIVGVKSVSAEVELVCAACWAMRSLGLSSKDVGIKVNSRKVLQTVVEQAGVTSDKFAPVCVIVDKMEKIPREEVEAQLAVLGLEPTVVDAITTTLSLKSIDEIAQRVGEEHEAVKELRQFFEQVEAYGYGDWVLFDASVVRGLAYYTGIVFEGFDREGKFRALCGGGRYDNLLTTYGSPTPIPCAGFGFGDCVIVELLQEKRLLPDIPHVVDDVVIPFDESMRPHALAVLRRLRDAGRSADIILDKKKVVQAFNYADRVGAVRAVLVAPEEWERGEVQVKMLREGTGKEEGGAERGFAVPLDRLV

Measurements from “University of Dundee, Small-Polar-MMV Screening Library” (2021), ChEMBL document CHEMBL3988442.

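Enzyme assay of histidyl-tRNA synthetase; the read-out is not stated. Target: Histidine-tRNA ligase, Trypanosoma cruzi CL Brener (UniProt Q4DA54). Tested at 30 µM. Direction is inferred from retests: higher values go with stronger inhibition. About 69,000 compounds were tested under these conditions; 0.045% (about 31) showed 50% or more at least once.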

Each number is a percent effect as filed.
The record does not define 0% and 100%; most values in the screen are far below 50% and negative numbers occur (in some assays of this library far below -100).
This is an unselected part of the compounds tested.

Compound | Percent Effect
Fc1ccc(-c2nnc(CN3CCCC(Cn4cncn4)C3)o2)cc1 (centres undefined) | 5.714
O=C(c1cccc(NCCOc2ccc(F)cc2)c1)N1CCOCC1 | 0.4484
CCN(c1ccsc1C(=O)N1CCSCC1)S(=O)(=O)c1ccc(Cl)cc1 | 6.25
CN(Cc1ccsc1)C(=O)Nc1ccc(S(C)(=O)=O)cc1 | 10.86
O=C(c1cscn1)N1CCC2(CCN(Cc3nccs3)CC2)C1 | 11.22
CC(C)(CN1CCC2(CCOCC2)CC1)N1CCOCC1 | 2.646
CC(C)OCCN1CCN(c2ccc(CN(C)C)cn2)CC1 | 2.155
CCCSCC(=O)NCc1cccc(CN(C)CC)c1 | 4.02
CCc1ccc(-c2cn(CCSc3ncn[nH]3)nn2)nc1 | 5.759
CCc1noc(CNc2nc(-c3cccnc3)nc3c2CCNCC3)n1 | 2.618
CCC(C)CN(C)C(=O)NCc1ccccc1-n1cccn1 (centres undefined) | 5.172
COCCN(C)C(=O)c1nc2c(s1)CCCN2c1ncccn1 | 1.093
O=C(c1ccncc1)N1C[C@@H]2CC[C@H](C1)N(C(=O)C1CCCC1)C2 | 1.136
Cc1ccc(F)c(OC2CCCN(c3cnn(C)c3)C2=O)c1 (centres undefined) | 5.155
COc1ccc(CC(=O)N2CCC3(CC2)CCN(CC(C)C)C3=O)cc1 | -17.48
CC(=O)N1CCN(Cc2ccsc2)CC2(CC(=O)N(C)C2)C1 (centres undefined) | 10.1
CCN(Cc1cccc2c1OCCO2)C(=O)NC(C)(C)C | 9.524
Cc1cc(CNC(=O)CCc2c(C)nc3cc(O)nn3c2C)no1 | 6.322
Cc1nsc(NC(=O)NC2(CN3CCCCC3)CCCCC2)n1 | -0.578
COCCC(=O)N1CCC2(CCN(Cc3ccc(OC)c(F)c3)C2)C1 (centres undefined) | -0.6135
COc1ccccc1Cc1nnc(SCCS(C)(=O)=O)o1 | 5.319
CCOC(C)c1nc(CN2CCN(c3ncc(C)cn3)CC2)cs1 (centres undefined) | 6.186
CN1CCN(Cc2cccnc2)C(=O)C12CCN(CC1CCOC1)CC2 (centres undefined) | 3.093
CCC(C)CS(=O)(=O)NCCc1csc(N2CCCC2)n1 (centres undefined) | 13.37
Cc1nc(-c2ccccc2C)n(CC(=O)NC(C)C2CC2)n1 (centres undefined) | 1.961
c1nc(CCC2CCCN2)cc(N2CCCCCC2)n1 (centres undefined) | 6.383
c1coc(CN2C[C@@H]3OCCN(CC4CCCO4)[C@@H]3C2)c1 (some centres undefined) | 12.61
CCc1nccn1C1CCCN(C(=O)CCc2nccs2)C1 (centres undefined) | -1.504
Cc1nc2ccccc2nc1CN1CCc2c(nc(C3CC3)n2C)C1 | 0
COCCOc1ccc(NC(=O)N(CCO)C2CC2)cn1 | 4.615
CC[C@H]1COCCN1C(=O)c1cnc(N2CCN(C)CC2)nc1C | 10.59
COCCC(=O)NCCn1nc(C2CCNC2)c2cccnc21 (centres undefined) | 5.319
O=C1CO[C@H]2CN(Cc3ccccc3Br)C[C@@H]2N1 | 7.491
O=C(CCN1CCCCO1)N1CCC(CO)(Cc2ccccc2)CC1 | 3.093
Cc1cc(C)c2c(N3CCCN(C(=O)C4CCC4)CC3)ncnc2n1 | 8
CC(c1nncn1C)n1cc(-c2cc(CN3CCCC3)cs2)nn1 (centres undefined) | 1.734
O=C1CN(c2ccc(CNC(=O)Nc3nccs3)cc2)CCN1 | 6.637
CCN1CC2(CC1=O)CN(C(C)=O)CCN(S(C)(=O)=O)C2 (centres undefined) | 7.362
O=C(CNC(=O)c1ccoc1)NC(c1ccc(F)cc1)C(F)(F)F (centres undefined) | 2.41
Cc1noc2nc(C3CCN(Cc4cccnc4)CC3)cc(C(F)F)c12 | 3.784
COc1cccc2sc(OC3CN(C(=O)C4=COCCO4)C3)nc12 | 2.591
CCCc1nnc2sc(C3CCN(CCOC)CC3)nn12 | -4.478
COc1ccc(C2CCCCCN2S(=O)(=O)N(C)C)cc1 (centres undefined) | -0.813
Cc1ccc(-c2nc(CN3CCCC3Cn3cncn3)co2)cc1 (centres undefined) | 4.611
COc1cccc(COCC(O)CN(C)c2ccc(C)cc2C)c1 (centres undefined) | 3.665
CCc1cnc(N2CC[C@@H]3CN(CCC(C)C)S(=O)(=O)[C@@H]3CC2)nc1 | 6.468
O=C(c1ccccc1)N1CCOC2(CCN(Cc3cccs3)CC2)C1 | 0
NC(=O)CCN(C(=O)c1cccc2c1OCO2)c1ccccc1 | 0.5405
Cc1ccc(S(=O)(=O)NC(=O)C2(c3ccc(F)cc3)CCC2)c(C)c1 | 8
c1ccc(C2CN(C3CC3)CC3(CCN(Cc4ncc[nH]4)CC3)C2)cc1 (centres undefined) | 4.938
CCOc1cc(CN(C)CC(=O)O)ccc1OC(F)F | 3.139
Cc1nn(C)c(N2CCOCC2)c1CNCc1ccc(Cl)s1 | -1.887
c1ccc(CN2CC[C@@H]3[C@@H](CO[C@@H]3CNc3ncccn3)C2)nc1 | 1.905
CC(=O)N1CCC(n2nccc2-c2cnc(N)nc2)CC1 | 3.39
c1ccc(C2CCCN2C2CSCCSC2)nc1 (centres undefined) | 14.29
Cc1cc(C)n(C2CCCN(C(=O)c3cn4cccnc4n3)C2)n1 (centres undefined) | 5.444
CC(=O)NCC(=O)N(CCN1CCOCC1)Cc1ccco1 | -3.518
CN(CCc1ccccn1)C(=O)Nc1cccnc1N1CCCC1 | 11.76
CN(C)CC(=O)N1CC2(CCN(Cc3ccccc3)C2)C1 | 5.825

Once more, the final 4:

With Cc1cc(C)n(C2CCCN(C(=O)c3cn4cccnc4n3)C2)n1 (centres undefined) the screen gave 5.444%.
With CC(=O)NCC(=O)N(CCN1CCOCC1)Cc1ccco1 the screen gave -3.518%.
With CN(CCc1ccccn1)C(=O)Nc1cccnc1N1CCCC1 the screen gave 11.76%.
With CN(C)CC(=O)N1CC2(CCN(Cc3ccccc3)C2)C1 the screen gave 5.825%.